Source: the supplement of paper PMC10849652
The other results are listed elsewhere or left out.

Sequences of proteins named here, by UniProt entry; tags and fusion partners are left off. A change or cut given only in a name is not applied to a line headed by its entry.
UniProt O15027: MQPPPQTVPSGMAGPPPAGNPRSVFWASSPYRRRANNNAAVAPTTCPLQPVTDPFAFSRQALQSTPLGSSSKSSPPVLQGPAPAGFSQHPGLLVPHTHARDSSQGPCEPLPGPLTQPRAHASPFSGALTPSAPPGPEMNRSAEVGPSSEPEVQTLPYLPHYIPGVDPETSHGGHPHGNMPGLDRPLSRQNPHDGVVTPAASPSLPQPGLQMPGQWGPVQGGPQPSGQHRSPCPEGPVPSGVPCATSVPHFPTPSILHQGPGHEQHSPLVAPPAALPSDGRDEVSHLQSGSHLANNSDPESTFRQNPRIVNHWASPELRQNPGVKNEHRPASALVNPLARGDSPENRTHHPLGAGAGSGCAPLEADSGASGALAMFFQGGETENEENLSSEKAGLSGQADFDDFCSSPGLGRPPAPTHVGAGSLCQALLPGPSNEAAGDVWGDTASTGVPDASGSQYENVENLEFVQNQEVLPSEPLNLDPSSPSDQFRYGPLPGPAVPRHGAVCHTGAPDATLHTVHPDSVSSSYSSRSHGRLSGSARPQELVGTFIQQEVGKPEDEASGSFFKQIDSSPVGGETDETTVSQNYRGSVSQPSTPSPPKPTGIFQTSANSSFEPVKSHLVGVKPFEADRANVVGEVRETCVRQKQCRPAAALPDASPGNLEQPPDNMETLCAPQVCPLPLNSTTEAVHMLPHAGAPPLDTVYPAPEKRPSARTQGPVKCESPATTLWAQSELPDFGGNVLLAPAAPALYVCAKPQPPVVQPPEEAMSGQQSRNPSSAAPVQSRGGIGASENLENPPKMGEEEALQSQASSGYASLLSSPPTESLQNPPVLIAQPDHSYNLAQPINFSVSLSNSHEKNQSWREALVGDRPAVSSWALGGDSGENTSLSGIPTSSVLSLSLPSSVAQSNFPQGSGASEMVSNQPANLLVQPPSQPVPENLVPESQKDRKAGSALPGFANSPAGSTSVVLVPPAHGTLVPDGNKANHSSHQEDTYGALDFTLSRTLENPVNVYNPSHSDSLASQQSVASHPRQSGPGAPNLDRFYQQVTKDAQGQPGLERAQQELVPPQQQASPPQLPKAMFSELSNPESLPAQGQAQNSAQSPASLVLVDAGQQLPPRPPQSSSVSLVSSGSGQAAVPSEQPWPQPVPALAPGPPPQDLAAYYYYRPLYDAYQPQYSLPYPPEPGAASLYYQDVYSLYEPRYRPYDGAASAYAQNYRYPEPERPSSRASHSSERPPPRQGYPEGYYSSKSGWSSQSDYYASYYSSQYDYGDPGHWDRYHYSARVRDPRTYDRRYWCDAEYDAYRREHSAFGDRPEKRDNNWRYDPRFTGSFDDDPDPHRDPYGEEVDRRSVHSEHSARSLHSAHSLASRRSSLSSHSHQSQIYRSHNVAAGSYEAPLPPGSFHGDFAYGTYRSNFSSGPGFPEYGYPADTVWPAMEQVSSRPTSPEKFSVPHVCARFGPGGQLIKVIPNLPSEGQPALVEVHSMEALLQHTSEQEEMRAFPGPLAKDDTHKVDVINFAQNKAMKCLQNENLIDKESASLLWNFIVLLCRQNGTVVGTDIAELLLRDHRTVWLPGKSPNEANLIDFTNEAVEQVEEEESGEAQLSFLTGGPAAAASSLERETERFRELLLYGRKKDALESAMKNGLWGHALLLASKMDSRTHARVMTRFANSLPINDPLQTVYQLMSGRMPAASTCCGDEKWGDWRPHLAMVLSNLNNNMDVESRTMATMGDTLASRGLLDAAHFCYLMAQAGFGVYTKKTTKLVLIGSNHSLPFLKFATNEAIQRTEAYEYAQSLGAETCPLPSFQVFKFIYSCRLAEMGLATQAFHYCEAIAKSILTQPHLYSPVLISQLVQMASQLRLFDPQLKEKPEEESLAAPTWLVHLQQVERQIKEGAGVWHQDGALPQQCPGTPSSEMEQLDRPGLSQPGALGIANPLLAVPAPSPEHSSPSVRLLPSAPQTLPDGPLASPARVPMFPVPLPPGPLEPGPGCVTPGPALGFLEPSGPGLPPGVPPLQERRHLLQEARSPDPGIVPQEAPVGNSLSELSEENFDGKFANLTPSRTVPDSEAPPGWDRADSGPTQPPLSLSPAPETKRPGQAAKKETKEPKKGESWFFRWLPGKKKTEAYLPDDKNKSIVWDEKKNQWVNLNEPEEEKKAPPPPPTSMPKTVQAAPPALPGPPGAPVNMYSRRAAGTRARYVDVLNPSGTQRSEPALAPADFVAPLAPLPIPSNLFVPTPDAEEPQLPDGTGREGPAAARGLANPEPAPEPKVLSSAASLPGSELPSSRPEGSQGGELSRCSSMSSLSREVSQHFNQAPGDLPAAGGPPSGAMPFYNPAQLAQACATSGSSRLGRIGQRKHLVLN
UniProt Q99611, whole entry, looked up: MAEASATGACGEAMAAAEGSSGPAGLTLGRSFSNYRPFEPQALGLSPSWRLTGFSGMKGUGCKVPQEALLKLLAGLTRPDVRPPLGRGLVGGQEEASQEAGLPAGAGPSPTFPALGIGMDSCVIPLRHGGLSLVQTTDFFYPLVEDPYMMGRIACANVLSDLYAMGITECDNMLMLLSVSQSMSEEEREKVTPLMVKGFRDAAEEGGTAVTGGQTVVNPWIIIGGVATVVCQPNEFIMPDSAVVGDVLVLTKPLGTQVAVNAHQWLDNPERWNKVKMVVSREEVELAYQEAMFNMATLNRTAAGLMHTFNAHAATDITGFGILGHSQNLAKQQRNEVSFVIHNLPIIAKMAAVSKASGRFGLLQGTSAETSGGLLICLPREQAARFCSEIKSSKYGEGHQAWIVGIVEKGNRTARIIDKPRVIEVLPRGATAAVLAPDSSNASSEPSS
UniProt P31040: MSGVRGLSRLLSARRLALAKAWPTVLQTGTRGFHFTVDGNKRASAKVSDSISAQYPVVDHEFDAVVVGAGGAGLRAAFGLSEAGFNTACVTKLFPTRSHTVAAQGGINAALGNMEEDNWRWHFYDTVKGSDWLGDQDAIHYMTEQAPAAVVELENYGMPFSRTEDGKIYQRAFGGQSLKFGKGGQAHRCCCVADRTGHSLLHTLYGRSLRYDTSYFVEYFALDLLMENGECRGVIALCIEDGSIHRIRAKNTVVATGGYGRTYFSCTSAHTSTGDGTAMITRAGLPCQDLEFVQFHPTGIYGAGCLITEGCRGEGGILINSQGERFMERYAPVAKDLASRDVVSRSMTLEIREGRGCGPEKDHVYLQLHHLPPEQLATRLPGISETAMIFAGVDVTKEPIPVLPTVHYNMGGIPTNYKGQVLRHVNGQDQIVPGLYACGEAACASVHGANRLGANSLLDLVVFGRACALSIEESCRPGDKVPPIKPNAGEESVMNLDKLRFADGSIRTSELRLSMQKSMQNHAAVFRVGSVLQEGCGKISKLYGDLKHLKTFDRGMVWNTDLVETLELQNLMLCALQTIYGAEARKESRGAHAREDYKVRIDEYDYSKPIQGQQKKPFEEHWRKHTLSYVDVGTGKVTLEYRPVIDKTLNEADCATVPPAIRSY
UniProt Q9Y6Y8: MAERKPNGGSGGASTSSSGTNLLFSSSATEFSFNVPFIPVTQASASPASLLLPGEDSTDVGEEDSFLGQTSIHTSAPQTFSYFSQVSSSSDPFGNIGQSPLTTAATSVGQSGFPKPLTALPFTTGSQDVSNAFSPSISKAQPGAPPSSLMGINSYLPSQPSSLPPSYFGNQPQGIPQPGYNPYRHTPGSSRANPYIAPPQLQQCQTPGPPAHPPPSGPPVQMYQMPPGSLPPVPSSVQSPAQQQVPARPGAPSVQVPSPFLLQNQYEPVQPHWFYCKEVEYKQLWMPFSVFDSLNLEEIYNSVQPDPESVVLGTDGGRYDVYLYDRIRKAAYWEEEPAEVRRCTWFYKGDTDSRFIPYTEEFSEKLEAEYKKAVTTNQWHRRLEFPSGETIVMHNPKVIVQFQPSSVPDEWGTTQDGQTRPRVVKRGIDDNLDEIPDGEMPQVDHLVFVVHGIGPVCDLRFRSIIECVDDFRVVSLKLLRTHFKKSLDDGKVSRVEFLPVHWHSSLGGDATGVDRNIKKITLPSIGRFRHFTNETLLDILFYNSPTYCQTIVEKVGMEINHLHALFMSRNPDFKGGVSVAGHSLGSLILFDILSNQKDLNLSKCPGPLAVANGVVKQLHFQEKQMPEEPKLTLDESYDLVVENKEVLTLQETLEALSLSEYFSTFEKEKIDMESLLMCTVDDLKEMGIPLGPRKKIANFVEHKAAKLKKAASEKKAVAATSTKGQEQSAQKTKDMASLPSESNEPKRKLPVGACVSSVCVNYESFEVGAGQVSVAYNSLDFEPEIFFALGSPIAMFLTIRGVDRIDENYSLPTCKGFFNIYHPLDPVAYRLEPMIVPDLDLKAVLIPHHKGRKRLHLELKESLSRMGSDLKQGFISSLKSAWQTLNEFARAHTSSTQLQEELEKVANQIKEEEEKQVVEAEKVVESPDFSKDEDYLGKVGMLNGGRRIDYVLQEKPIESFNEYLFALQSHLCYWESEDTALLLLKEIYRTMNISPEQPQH
UniProt O15127: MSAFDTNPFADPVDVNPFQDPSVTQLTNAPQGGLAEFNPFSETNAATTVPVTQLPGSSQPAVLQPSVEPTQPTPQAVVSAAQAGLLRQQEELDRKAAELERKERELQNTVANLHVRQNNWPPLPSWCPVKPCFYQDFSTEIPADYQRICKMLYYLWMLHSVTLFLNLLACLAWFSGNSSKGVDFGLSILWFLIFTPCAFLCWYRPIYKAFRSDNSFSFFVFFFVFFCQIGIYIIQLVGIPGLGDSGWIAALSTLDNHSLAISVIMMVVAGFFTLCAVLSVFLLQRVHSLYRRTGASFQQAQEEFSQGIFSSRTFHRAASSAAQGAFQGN
UniProt Q9NRP4: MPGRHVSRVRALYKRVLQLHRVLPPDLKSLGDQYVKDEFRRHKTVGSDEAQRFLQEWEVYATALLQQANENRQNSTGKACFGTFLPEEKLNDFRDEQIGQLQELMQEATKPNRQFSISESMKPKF
UniProt Q9H9S3, whole entry, looked up: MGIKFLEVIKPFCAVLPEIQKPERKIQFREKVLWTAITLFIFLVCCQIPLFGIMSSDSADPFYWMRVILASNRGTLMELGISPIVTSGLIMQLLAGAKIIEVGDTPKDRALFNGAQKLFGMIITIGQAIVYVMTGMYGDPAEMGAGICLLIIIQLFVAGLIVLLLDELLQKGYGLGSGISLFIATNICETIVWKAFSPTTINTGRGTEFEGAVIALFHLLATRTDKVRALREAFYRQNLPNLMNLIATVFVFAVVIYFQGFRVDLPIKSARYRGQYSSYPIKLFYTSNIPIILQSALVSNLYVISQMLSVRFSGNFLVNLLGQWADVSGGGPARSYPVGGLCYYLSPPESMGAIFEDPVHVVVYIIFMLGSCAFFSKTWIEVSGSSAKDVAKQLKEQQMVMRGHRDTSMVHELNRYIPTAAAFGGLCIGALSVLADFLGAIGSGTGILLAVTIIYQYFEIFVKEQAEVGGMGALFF
UniProt Q9Y3A5: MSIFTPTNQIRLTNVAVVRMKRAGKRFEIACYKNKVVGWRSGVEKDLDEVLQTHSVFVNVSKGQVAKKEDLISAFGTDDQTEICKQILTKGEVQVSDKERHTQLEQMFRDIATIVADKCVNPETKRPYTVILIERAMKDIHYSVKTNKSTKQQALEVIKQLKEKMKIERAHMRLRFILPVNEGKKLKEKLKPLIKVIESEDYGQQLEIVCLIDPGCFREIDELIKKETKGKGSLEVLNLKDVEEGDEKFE
UniProt P22307: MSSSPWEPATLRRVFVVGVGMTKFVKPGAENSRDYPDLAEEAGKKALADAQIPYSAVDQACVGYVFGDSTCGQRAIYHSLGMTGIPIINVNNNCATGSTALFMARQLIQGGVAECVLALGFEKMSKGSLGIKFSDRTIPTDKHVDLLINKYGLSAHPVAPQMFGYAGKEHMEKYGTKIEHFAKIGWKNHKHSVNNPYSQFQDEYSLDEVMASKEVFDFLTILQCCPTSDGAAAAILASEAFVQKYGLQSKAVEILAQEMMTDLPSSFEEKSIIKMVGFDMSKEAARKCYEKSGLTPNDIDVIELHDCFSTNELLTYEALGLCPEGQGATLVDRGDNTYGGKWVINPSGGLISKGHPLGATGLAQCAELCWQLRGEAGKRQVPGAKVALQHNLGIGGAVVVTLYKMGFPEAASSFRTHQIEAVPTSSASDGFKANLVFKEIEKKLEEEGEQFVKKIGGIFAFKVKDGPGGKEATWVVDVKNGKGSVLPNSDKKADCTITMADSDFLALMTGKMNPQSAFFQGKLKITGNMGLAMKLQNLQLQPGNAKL
UniProt Q969E2: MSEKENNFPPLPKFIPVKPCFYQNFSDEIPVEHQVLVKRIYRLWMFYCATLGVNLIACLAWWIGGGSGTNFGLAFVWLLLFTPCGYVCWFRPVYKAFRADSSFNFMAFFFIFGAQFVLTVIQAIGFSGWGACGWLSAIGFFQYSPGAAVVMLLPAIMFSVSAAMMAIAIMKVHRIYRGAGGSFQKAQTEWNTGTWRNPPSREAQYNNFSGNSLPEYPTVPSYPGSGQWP

Tests used:
Experiment in all cases: log2 fold change, soluble protein after heating vs DMSO (PISA); higher = thermal stabilisation; K562 lysate, 10 uM; active = over 0.2 and 3.5 SD of the protein, either way, in both replicates (recomputed)
erlotinib = compound: C#Cc1cccc(Nc2ncnc3cc(OCCOC)c(OCCOC)cc23)c1 [erlotinib]
Summary of the method: (§1)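 The values are log-two fold changes in thermal stability compared with solvent controls and come from duplicates. They were obtained by TMTpro 16plex LC-MS/MS, with channel sums equalised, on the supernatant after 21,000xg for 90 min. That supernatant came from crude K562 extract at 1 mg/mL protein treated with 10 μM compound for 30 min, heated for 3 min across 48°C-58°C, pooled and brought to 0.5% NP-40 at 4°C.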

[1] = compound: C/C(=N\NC(=O)C1=CC(=CC=C1)S(=O)(=O)N2CCOCC2)/C3=C(C=CC(=C3)Cl)O
Summary of the method: as §1

[2] = compound: C1=CC(=CC=C1C2=NC3=C(N2)C=C(C=C3)C(=O)N)OC4=CC=C(C=C4)Cl
Summary of the method: as §1

[3] = compound: C1=CC2=C(C=CC(=C2)/C=C\3/C(=O)NC(=NCC4=CC=CS4)S3)N=C1
Summary of the method: as §1

[4] = compound: C1=CC2=NC=CN=C2C=C1/C=C/3\C(=O)NC(=O)S3
Summary of the method: as §1

[5] = compound: C1=CC=C(C=C1)C2=NC(=C(N2)C3=CC=NC=C3)C4=CC(=C(C=C4)Cl)O
Summary of the method: as §1

[6] = compound: C1=CC=C2C(=C1)C3=NNC4=CC=CC(=C43)C2=O
Summary of the method: as §1

[7] = compound: C1CCN(C1)C(=O)NC2=CC=CC(=C2)NC3=NC=C(C(=N3)NCCC4=CN=CN4)Br
Summary of the method: as §1

[8] = compound: C1CN(CCC1(CC2=CC=C(C=C2)Cl)N)C3=NC=NC4=C3C=CN4
Summary of the method: as §1

IRAK-1-4 Inhibitor I = compound: C1COCCN1CCN2C3=CC=CC=C3N=C2NC(=O)C4=CC(=CC=C4)[N+](=O)[O-] [IRAK-1-4 Inhibitor I]
Summary of the method: as §1

ibrutinib = compound: C=CC(=O)N1CCC[C@@H](n2nc(-c3ccc(Oc4ccccc4)cc3)c3c(N)ncnc32)C1 [ibrutinib]
Summary of the method: as §1

[9] = compound: CC(=O)c1cnc2ccc(-c3cc(Cl)c(O)c(Cl)c3)nc2c1N[C@H]1CC[C@H](CN(C)C)CC1
Summary of the method: as §1

ralimetinib = compound: CC(C)(C)Cn1c(N)nc2ccc(-c3[nH]c(C(C)(C)C)nc3-c3ccc(F)cc3)nc21 [ralimetinib]
Summary of the method: as §1

[10] = compound: CC(C)(O)CC(=O)NCCn1ccc2ncnc(Nc3ccc(Oc4cccc(C(F)(F)F)c4)c(Cl)c3)c21
Summary of the method: as §1

[11] = compound: CC(C)C1=C2N=C(C=C(N2N=C1)NCC3=CC=CC=C3)NCCCCCCN
Summary of the method: as §1

[12] = compound: CC1=C(C(CC(=O)N1)C2=CC=C(C=C2)C(F)(F)F)C(=O)NC3=C(C=C4C(=C3)C=NN4)F
Summary of the method: as §1

[13] = compound: CC1=C(C2=C(C=C1)C(=O)C3=CC=CC=C3N2CCCN)C
Summary of the method: as §1

[14] = compound: CC1=C(C=C(C=C1)NC(=O)C2=CC(=CC=C2)C(C)(C)C#N)NC3=CC4=C(C=C3)N=CN(C4=O)C
Summary of the method: as §1

[15] = compound: CC1=C(C=C(C=C1)NC(=O)C2=CC(=CC=C2)N(C)C)NC(=O)C3=CC=C(C=C3)O
Summary of the method: as §1

[16] = compound: CC1=CC=C(C=C1)SC2=C3C=C(SC3=CN=C2)C(=O)N
Summary of the method: as §1

Measured: log2 fold change

SEL1L (UniProt Q9UBV2)
inactive: erlotinib -0.048 | [1] -0.033 | [2] -0.009 | [3] -0.007 | [4] -0.012 | [5] -0.004 | [6] -0.084 | [7] 0.009 | [8] 0 | IRAK-1-4 Inhibitor I 0.012 | ibrutinib 0.049 | [9] -0.008 | ralimetinib 0.016 | [10] -0.028 | [11] -0.007 | [12] 0.057 | [13] -0.078 | [14] -0.027 | [15] -0.006 | [16] 0.005

SEC16A isoform 5 (UniProt O15027)
inactive: erlotinib 0.006 | [1] -0.019 | [2] 0.025 | [3] -0.016 | [4] -0.031 | [5] -0.038 | [6] -0.085 | [7] -0.022 | [8] 0.002 | IRAK-1-4 Inhibitor I -0.005 | ibrutinib 0.035 | [9] -0.021 | ralimetinib -0.013 | [10] 0.015 | [11] 0.01 | [12] 0.019 | [13] 0.004 | [14] -0.121 | [15] 0.011 | [16] -0.031

SCRN2 (UniProt Q96FV2)
inactive: erlotinib -0.01 | [1] -0.099 | [2] -0.066 | [3] -0.059 | [4] 0.01 | [5] 0.091 | [6] -0.117 | [7] -0.04 | [8] -0.007 | IRAK-1-4 Inhibitor I -0.099 | ibrutinib -0.033 | [9] 0.028 | ralimetinib 0.03 | [10] -0.037 | [11] -0.03 | [12] -0.066 | [13] -0.078 | [14] 0.047 | [15] -0.014 | [16] -0.077

SEPHS2 (UniProt Q99611)
inactive: erlotinib -0.051 | [1] 0.05 | [2] 0.002 | [3] -0.029 | [4] -0.009 | [5] -0.005 | [6] 0.091 | [7] 0.061 | [8] 0.052 | IRAK-1-4 Inhibitor I -0.025 | ibrutinib -0.014 | [9] 0.015 | ralimetinib -0.001 | [10] -0.035 | [11] -0.033 | [12] 0.02 | [13] 0.002 | [14] 0.015 | [15] -0.038 | [16] 0.012

Two successive records from above:
SEC16A isoform 5 (UniProt O15027)
inactive: erlotinib 0.006 | [1] -0.019 | [2] 0.025 | [3] -0.016 | [4] -0.031 | [5] -0.038 | [6] -0.085 | [7] -0.022 | [8] 0.002 | IRAK-1-4 Inhibitor I -0.005 | ibrutinib 0.035 | [9] -0.021 | ralimetinib -0.013 | [10] 0.015 | [11] 0.01 | [12] 0.019 | [13] 0.004 | [14] -0.121 | [15] 0.011 | [16] -0.031

SCRN2 (UniProt Q96FV2)
inactive: erlotinib -0.01 | [1] -0.099 | [2] -0.066 | [3] -0.059 | [4] 0.01 | [5] 0.091 | [6] -0.117 | [7] -0.04 | [8] -0.007 | IRAK-1-4 Inhibitor I -0.099 | ibrutinib -0.033 | [9] 0.028 | ralimetinib 0.03 | [10] -0.037 | [11] -0.03 | [12] -0.066 | [13] -0.078 | [14] 0.047 | [15] -0.014 | [16] -0.077

More records.

SDHA (UniProt P31040)
inactive: erlotinib 0.001 | [1] 0.034 | [2] 0.109 | [3] -0.006 | [4] 0.005 | [5] -0.005 | [6] 0.025 | [7] -0.009 | [8] 0.004 | IRAK-1-4 Inhibitor I 0.011 | ibrutinib -0.015 | [9] 0 | ralimetinib 0.043 | [10] 0.049 | [11] -0.01 | [12] 0.004 | [13] 0.008 | [14] 0.014 | [15] -0.015 | [16] 0.002

SDF2L1 (UniProt Q9HCN8)
inactive: erlotinib -0.008 | [1] -0.03 | [2] 0.022 | [3] -0.032 | [4] -0.01 | [5] -0.022 | [6] 0.018 | [7] 0.056 | [8] -0.002 | IRAK-1-4 Inhibitor I 0.005 | ibrutinib 0.018 | [9] 0.007 | ralimetinib 0.081 | [10] -0.001 | [11] -0.002 | [12] -0.002 | [13] 0.005 | [14] 0.013 | [15] 0.006 | [16] 0.004

SEC23IP (UniProt Q9Y6Y8)
inactive: erlotinib 0.014 | [1] -0.081 | [2] 0.051 | [3] 0.039 | [4] -0.007 | [5] -0.031 | [6] -0.029 | [7] -0.031 | [8] -0.006 | IRAK-1-4 Inhibitor I 0.015 | ibrutinib 0.005 | [9] -0.028 | ralimetinib -0.006 | [10] -0.021 | [11] -0.016 | [12] -0.03 | [13] -0.002 | [14] -0.041 | [15] -0.016 | [16] -0.014

SCAMP2 (UniProt O15127)
inactive: erlotinib -0.054 | [1] 0.061 | [2] 0.03 | [3] -0.018 | [4] -0.013 | [5] 0.009 | [6] -0.02 | [7] -0.097 | [8] 0.111 | IRAK-1-4 Inhibitor I 0.029 | ibrutinib -0.019 | [9] -0.034 | ralimetinib -0.061 | [10] -0.103 | [11] -0.017 | [12] 0.027 | [13] -0.029 | [14] 0.053 | [15] -0.054 | [16] -0.056

SENP8 (UniProt Q96LD8)
inactive: erlotinib -0.03 | [1] 0.061 | [2] 0.034 | [3] 0.031 | [4] 0.044 | [5] -0.042 | [6] -0.136 | [7] 0.07 | [8] -0.081 | IRAK-1-4 Inhibitor I -0.023 | ibrutinib 0.13 | [9] 0.016 | ralimetinib -0.111 | [10] -0.037 | [11] -0.08 | [12] 0.233 | [13] 0.14 | [14] 0.019 | [15] 0.108 | [16] 0.04

SEC22B (UniProt O75396)
inactive: erlotinib 0.025 | [1] 0.023 | [2] -0.002 | [3] -0.038 | [4] -0.005 | [5] -0.016 | [6] 0.001 | [7] -0.002 | [8] 0.038 | IRAK-1-4 Inhibitor I -0.046 | ibrutinib 0.02 | [9] -0.019 | ralimetinib -0.009 | [10] -0.005 | [11] -0.003 | [12] 0.02 | [13] -0.031 | [14] -0.001 | [15] -0.03 | [16] 0.025

SDHAF3 (UniProt Q9NRP4)
inactive: erlotinib -0.042 | [1] 0.035 | [2] -0.026 | [3] -0.015 | [4] -0.005 | [5] -0.038 | [6] 0.05 | [7] -0.014 | [8] 0.007 | IRAK-1-4 Inhibitor I 0.028 | ibrutinib -0.042 | [9] 0.011 | ralimetinib 0.022 | [10] -0.048 | [11] -0.032 | [12] -0.04 | [13] 0.065 | [14] -0.043 | [15] -0.025 | [16] 0.029

SAMHD1 (UniProt Q9Y3Z3)
inactive: erlotinib 0.035 | [1] 0.036 | [2] 0.004 | [3] 0.015 | [4] 0.005 | [5] -0.021 | [6] -0.057 | [7] -0.065 | [8] 0.035 | IRAK-1-4 Inhibitor I 0.013 | ibrutinib -0.009 | [9] -0.022 | ralimetinib 0.056 | [10] -0.004 | [11] -0.002 | [12] 0.003 | [13] -0.017 | [14] 0.006 | [15] 0.067 | [16] -0.003

SEC61A2 (UniProt Q9H9S3)
inactive: erlotinib 0.06 | [1] -0.029 | [2] -0.033 | [3] -0.012 | [4] -0.001 | [5] -0.029 | [6] 0.002 | [7] -0.038 | [8] -0.006 | IRAK-1-4 Inhibitor I 0.015 | ibrutinib 0.006 | [9] -0.011 | ralimetinib 0 | [10] -0.015 | [11] 0 | [12] 0.026 | [13] -0.083 | [14] 0.083 | [15] -0.101 | [16] -0.026

SBDS (UniProt Q9Y3A5)
inactive: erlotinib 0.016 | [1] -0.007 | [2] 0.008 | [3] 0.023 | [4] -0.009 | [5] 0.005 | [6] 0.014 | [7] -0.017 | [8] -0.011 | IRAK-1-4 Inhibitor I 0.014 | ibrutinib -0.047 | [9] -0.037 | ralimetinib -0.015 | [10] -0.01 | [11] -0.004 | [12] -0.02 | [13] 0.004 | [14] 0.029 | [15] -0.026 | [16] -0.012

SCP2 (UniProt P22307)
inactive: erlotinib -0.009 | [1] 0.055 | [2] 0.032 | [3] 0.001 | [4] -0.011 | [5] 0.014 | [6] 0 | [7] -0.017 | [8] 0.021 | IRAK-1-4 Inhibitor I 0.018 | ibrutinib 0.024 | [9] -0.016 | ralimetinib 0.005 | [10] -0.009 | [11] -0.009 | [12] -0.008 | [13] -0.007 | [14] 0.019 | [15] -0.017 | [16] -0.018

SCAMP4 (UniProt Q969E2)
inactive: erlotinib -0.008 | [1] 0.011 | [2] 0.046 | [3] 0.06 | [4] 0.052 | [5] 0.039 | [6] -0.082 | [7] -0.056 | [8] 0.009 | IRAK-1-4 Inhibitor I 0.01 | ibrutinib 0 | [9] -0.054 | ralimetinib 0.034 | [10] -0.001 | [11] 0.007 | [12] 0.01 | [13] 0.007 | [14] 0.004 | [15] -0.007 | [16] -0.035
